{"source": "patent US10918727B2", "about": "“Peptide with ability to penetrate cell membrane” (ICURE BNP CO., LTD., priority 2016, dated 2021)", "key": {"[1]": {"test_system": "type 2 diabetic model mice (db/db mice)", "test": "Blood glucose-lowering effect of intranasal TCTP-PTD/Ex-4 mixture in type 2 diabetic model mice after i.p. glucose", "assay_type": "in vivo, mouse", "settings": "Ex-4 10 μg/kg"}, "[2]": {"test_system": "type 1 diabetic model mice (STZ-induced male ICR mice)", "test": "Blood glucose-lowering effect of intranasal TCTP-PTD/insulin mixture in type 1 diabetic model mice", "assay_type": "in vivo, mouse", "settings": "intranasal mixture with insulin 2 IU/kg", "method": "Streptozotocin (STZ) was injected intraperitoneally into male ICR mice (body weight: 33-34.5 g) four times (doses: 100, 50, 50 and 50 mg/kg) at 2-day intervals to induce type 1 diabetes. At 7 days after last administration of STZ, mice having a blood glucose level of 300-350 mg/dL were selected as experimental animals."}, "[3]": {"test_system": "cervical cancer cell line HeLa", "test": "Cell membrane penetration of FITC-labeled TCTP-PTD peptides in HeLa cells (fluorescence reader)", "assay_type": "cell-based", "settings": "10 μM FITC-labeled peptide, 15 minutes", "method": "The cervical cancer cell line HeLa was prepared. To detect TCTP-PTD accumulated in cells after passage through the cell membrane, the N-terminus of the synthesized peptide was labeled with FITC (fluorescein isothicyanate). Then, the cervical cancer cell line Hela was treated with 10 μM of the FITC-labeled TCTP-PTD of SEQ ID NO: 18, SEQ ID NO: 22, SEQ ID NO: 24 or SEQ ID NO: 27 for 15 minutes. After completion of the incubation, the cells were washed three times with PBS to remove FITC-TCTP-PTD remaining on the cell membrane of the HeLa cells. 500 μl of PBS was added, and then the fluorescence intensity of the FITC was measured with a fluorescence reader at 495 nm and 517 nm."}, "[4]": {"test_system": "hair follicle and dermis of the skin (male BALB/c mice)", "test": "Hair follicle penetration of FITC-labeled TCTP-PTD after transdermal administration (fluorescence microscopy)", "assay_type": "in vivo, mouse", "settings": "100 μl of 100 μM FITC-labeled peptide on 1 cm^2, 2 hours", "method": "Male BALB/c mice (7-8-week-old) were prepared, and the abdominal region of the mice was shaved. Next, the mice were anesthetized by intraperitoneal injection of urethane (1.2-1.5 g/kg), and then 100 μl of each TCTP-PTD peptide solution was applied to the abdominal region of each mouse so as to be administered transdermally. Each of the peptide solutions was applied to an area of 1 cm^2.\n2 hours after transdermal administration, the skin tissue was collected, fixed with 10% formalin for about 24 hours, and then treated with 30% sucrose solution for 4 hours. The pretreated skin tissue was immersed in OCT-compound, and then treated with liquid nitrogen to prepare a frozen block. The skin tissue was sectioned to a thickness of 20 μm by use of a cryotome and attached to a slide. The slide having the skin tissue attached thereto was washed five times with PBS, and then the nucleus was stained with DAPI (blue fluorescence).\nThe amino terminus of L-PTD 13 or D-PTD 13 was labeled with FITC (green fluorescence), and then each PTD peptide was dissolved in PBS (phosphate buffered saline, pH 7.4) to a final concentration of 100 μM.\nMale BALB/c mice (7-8-week-old) were prepared, and the abdominal region of the mice was shaved. […]"}}, "note": "Entries after “also recorded” stand apart in the source; their conditions may differ. Part of at least one peptide drawing is inferred or uncertain, most often the ends. No end group written: not given here.", "data": [{"sequence": "MIIFRLLISHKK [SEQ ID NO: 22]", "values": [{"measurement": "blood glucose level after i.p. glucose / blood glucose-lowering effect", "setting": "[1]; 10 μM Ex-4 + 20 μM peptide, glucose 2.5 g/kg i.p., monitored 240 minutes", "value": "excellent effect of lowering the blood glucose level; also recorded: increase the blood glucose-lowering effect of Ex-4"}, {"measurement": "AUC of the blood glucose level compared with Ex-4 alone", "setting": "[1]; trapezoidal rule", "value": "lower"}, {"measurement": "ability to deliver insulin compared with SEQ ID NO: 27", "setting": "[2]", "value": "better than that of SEQ ID NO: 27"}, {"measurement": "fluorescence of FITC-labeled peptide in cells (cell membrane penetration)", "setting": "[3]", "value": "high level of fluorescence"}, {"measurement": "penetration to hair follicle and dermis of the skin", "setting": "[4]", "value": "reached the hair follicle and dermis of the skin"}]}]}
